# This is one part of the list. Many values rest on one well or one pass, so single values are uncertain.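 The apoptosis fraction was the count of cleaved-PARP antibody-stained nuclei relative to all DNA-stained nuclei, imaged in 1,536-well plates. Screening doses were set so most cells survived, and baseline and induced cleaved-PARP levels vary greatly across cell lines.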
# Columns and labels:
# Assay in all cases: cleaved PARP positive nuclei fraction relative to DMSO control; melanoma cells; higher = more apoptosis
# Conditions in all cases: library dose: low library concentration; 72 h
# MZ2-MEL = tested on: MZ2-MEL
# MeWo = tested on: MeWo
# RPMI7951 = tested on: RPMI7951
# RVH-421 = tested on: RVH-421
# SkMel28 = tested on: SkMel28
# SkMel30 = tested on: SkMel30
# SkMel5 = tested on: SkMel5
# UACC257 = tested on: UACC257
# UACC62 = tested on: UACC62
# WM115 = tested on: WM115
# WM1716 = tested on: WM1716
# WM1745 = tested on: WM1745
# WM3526 = tested on: WM3526
# WM3619 = tested on: WM3619
# WM451Lu = tested on: WM451Lu
SMILES,cleaved PARP positive nuclei fraction (MZ2-MEL) [%],cleaved PARP positive nuclei fraction (MeWo) [%],cleaved PARP positive nuclei fraction (RPMI7951) [%],cleaved PARP positive nuclei fraction (RVH-421) [%],cleaved PARP positive nuclei fraction (SkMel28) [%],cleaved PARP positive nuclei fraction (SkMel30) [%],cleaved PARP positive nuclei fraction (SkMel5) [%],cleaved PARP positive nuclei fraction (UACC257) [%],cleaved PARP positive nuclei fraction (UACC62) [%],cleaved PARP positive nuclei fraction (WM115) [%],cleaved PARP positive nuclei fraction (WM1716) [%],cleaved PARP positive nuclei fraction (WM1745) [%],cleaved PARP positive nuclei fraction (WM3526) [%],cleaved PARP positive nuclei fraction (WM3619) [%],cleaved PARP positive nuclei fraction (WM451Lu) [%]
"Cc1ccc(NC(=O)c2cccc(N(C)C)c2)cc1NC(=O)c1ccc(O)cc1 + COc1cc(N2CCC(N3CCN(C)CC3)CC2)ccc1Nc1ncc(Cl)c(Nc2ccccc2S(=O)(=O)C(C)C)n1 [NVP-TAE684] (first compound 2 µM, partner dose 0.08 µM)",171,52.9,71.2,114,238,34.2,51.4,238,702,281,47,111,58.6,185,298
"CO[C@@H]1[C@H](N(C)C(=O)c2ccccc2)C[C@H]2O[C@]1(C)n1c3ccccc3c3c4c(c5c6ccccc6n2c5c31)C(=O)NC4 [Midostaurin] + Oc1cc(-c2nc(-c3ccccc3)[nH]c2-c2ccncc2)ccc1Cl [L779450] (first compound 0.08 µM, partner dose 0.2 µM)",79.6,60.4,94.4,131,224,46.2,30.7,104,123,114,79.1,126,573,112,64.3
"Cc1cc(N2CCOCC2)cc2[nH]c(-c3c(NC[C@@H](O)c4cccc(Cl)c4)cc[nH]c3=O)nc12 + O=S(=O)(c1ccccc1)N(CC(F)(F)F)c1ccc(C(O)(C(F)(F)F)C(F)(F)F)cc1 [T0901317] (first compound 0.2 µM, partner dose 1.4 µM)",26.1,54.5,76.2,43.9,120,34.5,92,154,102,89.8,112,143,133,121,169
"C[C@]1(c2nc3c(C(N)=O)cccc3[nH]2)CCCN1 [Veliparib] + COc1ccc(-c2ccc3c(N4CCOCC4)nc(N4C[C@@H](C)O[C@@H](C)C4)nc3n2)cc1CO [KU0063794] (first compound 1.4 µM, partner dose 0.02 µM)",30.6,76.8,200,25.5,155,120,59.3,163,52.1,172,139,103,76,100,385
"C[C@]1(c2nc3c(C(N)=O)cccc3[nH]2)CCCN1 [Veliparib] + Cc1cc([N+](=O)[O-])ccc1NS(=O)(=O)c1cc(Cl)ccc1Cl [FH535] (first compound 1.4 µM, partner dose 1 µM)",42.3,124,42.7,132,109,120,44.7,97.8,283,53.6,49.9,115,35.2,90.4,175
"CC1(C)NC(=O)N(c2ccc([N+](=O)[O-])c(C(F)(F)F)c2)C1=O [nilutamide] + O=C(O)C(=O)Nc1sc2c(c1C(=O)O)CCNC2 [TCS401] (first compound 1 µM, partner dose 1.66667 µM)",86.8,112,81,30.9,150,29.3,112,51,129,88,85.9,123,150,83.1,93.1
"C=CCn1c(=O)c2cnc(Nc3ccc(N4CCN(C)CC4)cc3)nc2n1-c1cccc(C(C)(C)O)n1 + Cn1cc(/C=C2\C(=O)Nc3cccnc32)c2ccccc21 [GW441756] (first compound 0.02 µM, partner dose 0.4 µM)",105,55,90.5,85.3,94.5,24,47.9,116,138,123,39.7,128,40.4,99.6,125
"Cc1cc(N2CCOCC2)cc2[nH]c(-c3c(NC[C@@H](O)c4cccc(Cl)c4)cc[nH]c3=O)nc12 + COC(=O)c1sccc1S(=O)(=O)Nc1ccc(Nc2ccccc2)cc1OC [GSK0660] (first compound 0.2 µM, partner dose 1 µM)",146,52.7,40.9,53.6,84.9,75.7,102,92,95,125,31.9,110,123,102,44.6
"Cn1nnc2c(C(N)=O)ncn2c1=O [temozolomide] + O=C(O)C(=O)Nc1sc2c(c1C(=O)O)CCNC2 [TCS401] (first compound 2 µM, partner dose 1.66667 µM)",85.6,48.9,153,135,65.9,73.1,53.9,78.2,32.7,181,187,113,173,346,137
"Cc1nc(Nc2ncc(C(=O)Nc3c(C)cccc3Cl)s2)cc(N2CCN(CCO)CC2)n1 [dasatanib] + COc1ccc2c(c1)CCC1C2CCC2(C)C(NCCCCCCN3C(=O)C=CC3=O)CCC12 [U73122] (first compound 0.004 µM, partner dose 0.4 µM)",53.9,123,192,73.9,191,20.1,45.5,234,120,279,138,160,369,102,49.4
"Nc1cccc2c1CN(C1CCC(=O)NC1=O)C2=O (stereo not given) [lenalidomide] + Cn1cc(/C=C2\C(=O)Nc3cccnc32)c2ccccc21 [GW441756] (first compound 1 µM, partner dose 0.4 µM)",107,112,97.3,61.2,141,234,96.3,156,41.6,236,94.3,104,91.9,89.1,120
"Cn1c(Nc2ccc(C(F)(F)F)cc2)nc2cc(Oc3ccnc(-c4ncc(C(F)(F)F)[nH]4)c3)ccc21 + COc1cc2ncnc(Nc3ccc(Oc4ccccc4)cc3)c2cc1OC [SrcI1] (first compound 0.08 µM, partner dose 2 µM)",175,143,121,64.2,224,31.3,195,858,72.5,385,141,184,150,128,267
"CC(C)(C)c1cnc(CSc2cnc(NC(=O)C3CCNCC3)s2)o1 + CCN(CC)CCCCNc1ncc2cc(-c3cc(OC)cc(OC)c3)c(NC(=O)NC(C)(C)C)nc2n1 [PD173074] (first compound 0.01 µM, partner dose 0.1 µM)",126,71.7,86.7,49.9,94.3,443,80.7,130,46.1,40.1,106,98.8,64.6,80.6,88.8
"CC1(C)NC(=O)N(c2ccc([N+](=O)[O-])c(C(F)(F)F)c2)C1=O [nilutamide] + COc1ccc2c(c1)CCC1C2CCC2(C)C(NCCCCCCN3C(=O)C=CC3=O)CCC12 [U73122] (first compound 1 µM, partner dose 0.4 µM)",77.5,217,139,115,34.5,28,63.1,42.5,29.3,391,66.9,107,74.5,91.6,122
"Cc1nc(Nc2ncc(C(=O)Nc3c(C)cccc3Cl)s2)cc(N2CCN(CCO)CC2)n1 [dasatanib] + O=C1NC(=O)/C(=C/c2ccc(-c3ccc(F)cc3O)o2)S1 [AS252424] (first compound 0.004 µM, partner dose 1 µM)",222,66.2,31.4,16.4,259,15.7,34.2,151,78.9,98.3,256,243,62.3,88.7,35.1
"CC(C)(C)c1cnc(CSc2cnc(NC(=O)C3CCNCC3)s2)o1 + COC(=O)c1sccc1S(=O)(=O)Nc1ccc(Nc2ccccc2)cc1OC [GSK0660] (first compound 0.01 µM, partner dose 1 µM)",89.2,305,158,104,38.7,18.6,86.6,60.2,187,127,123,102,68.7,85.6,52.7
"O=C(Nc1cccc(Cl)c1)Nc1ncc(CCNc2ncnc3ccsc23)s1 + O=c1cc(-c2cccc3c2Sc2ccccc2S3)oc(N2CCOCC2)c1 [KU55933] (first compound 0.0008 µM, partner dose 1 µM)",114,35.5,46.6,66.8,115,49.2,69.4,149,34.8,21.7,13.9,115,38.4,80,132
"CO[C@@H]1[C@H](N(C)C(=O)c2ccccc2)C[C@H]2O[C@]1(C)n1c3ccccc3c3c4c(c5c6ccccc6n2c5c31)C(=O)NC4 [Midostaurin] + COC(=O)c1sccc1S(=O)(=O)Nc1ccc(Nc2ccccc2)cc1OC [GSK0660] (first compound 0.08 µM, partner dose 1 µM)",127,28.5,96.7,91.7,84.9,31,33.8,117,153,296,43.6,110,77.7,118,94.7
"Cc1nc(Nc2ncc(C(=O)Nc3c(C)cccc3Cl)s2)cc(N2CCN(CCO)CC2)n1 [dasatanib] + c1cc(-c2cnn3cc(-c4ccc(OCCN5CCCCC5)cc4)cnc23)ccn1 [Dorsomorphin] (first compound 0.004 µM, partner dose 0.4 µM)",231,106,269,142,195,69,65.2,58.8,167,145,210,362,166,113,155

# Some of the entries above, reformatted:
SMILES	cleaved PARP positive nuclei fraction (MZ2-MEL) [%]	cleaved PARP positive nuclei fraction (MeWo) [%]	cleaved PARP positive nuclei fraction (RPMI7951) [%]	cleaved PARP positive nuclei fraction (RVH-421) [%]	cleaved PARP positive nuclei fraction (SkMel28) [%]	cleaved PARP positive nuclei fraction (SkMel30) [%]	cleaved PARP positive nuclei fraction (SkMel5) [%]	cleaved PARP positive nuclei fraction (UACC257) [%]	cleaved PARP positive nuclei fraction (UACC62) [%]	cleaved PARP positive nuclei fraction (WM115) [%]	cleaved PARP positive nuclei fraction (WM1716) [%]	cleaved PARP positive nuclei fraction (WM1745) [%]	cleaved PARP positive nuclei fraction (WM3526) [%]	cleaved PARP positive nuclei fraction (WM3619) [%]	cleaved PARP positive nuclei fraction (WM451Lu) [%]
CC1(C)NC(=O)N(c2ccc([N+](=O)[O-])c(C(F)(F)F)c2)C1=O [nilutamide] + O=C(O)C(=O)Nc1sc2c(c1C(=O)O)CCNC2 [TCS401] (first compound 1 µM, partner dose 1.66667 µM)	86.8	112	81	30.9	150	29.3	112	51	129	88	85.9	123	150	83.1	93.1
C=CCn1c(=O)c2cnc(Nc3ccc(N4CCN(C)CC4)cc3)nc2n1-c1cccc(C(C)(C)O)n1 + Cn1cc(/C=C2\C(=O)Nc3cccnc32)c2ccccc21 [GW441756] (first compound 0.02 µM, partner dose 0.4 µM)	105	55	90.5	85.3	94.5	24	47.9	116	138	123	39.7	128	40.4	99.6	125
